Experimental data: US7291641B2, “Derivatives of heterocycles with 5 members, their preparation and their use as medicaments” (Societe de Conseils de Recherches et d'Applications …, priority 1999, dated 2007)
Structures can show the parent of a compound that is named as a salt. Some results were stated once for a whole list of compounds, not compound by compound. At least one structure is not confirmed: it was looked up by name or label, or the drawing left a doubt.

The compounds below were run on voltage-dependent sodium channels. Settings: homogenate of rat cortex; [3H] batrachotoxin-A 20-alpha benzoate 5 nM; 1 hour 30 minutes at 25° C.; read-out: IC50 on the bond of tritiated batrachotoxin on the voltage-dependent sodium channels.
Type: binding
In the case of `CCCCCCC(NCc1ccccc1)c1nc(-c2ccc(Br)cc2)c[nH]1` (racemic) [Example 212, (R,S)-N-benzyl-1-[4-(4-bromophenyl)-1H-imidazol-2-yl]-1-heptanamine], the IC50 is reported as no more than 1000 nM. Compound `CCCCCCC(NCc1cccc(Cl)c1)c1nc(-c2ccccc2)c[nH]1` (racemic) [Example 215, (R,S)-N-(3-chlorobenzyl)-1-(4-phenyl-1H-imidazol-2-yl)-1-heptanamine] has an IC50 of no more than 1000 nM. `CCCCCCC(NCc1ccccc1)c1nc(-c2cccc(OC)c2)c[nH]1` (racemic) [Example 216, (R,S)-N-benzyl-1-[4-(3-methoxyphenyl)-1H-imidazol-2-yl]-1-heptanamine] was tested, and the IC50 was no more than 1000 nM. `CCCCCCC(NCc1ccccc1)c1nc(-c2ccc(C#N)cc2)c[nH]1` (racemic) [Example 217, (R,S)-4-{2-[1-(benzylamino)heptyl]-1H-imidazol-4-yl}benzonitrile] gave an IC50 of no more than 1000 nM. For `CCCCCCC(N)c1nc(-c2ccc(N(CC)CC)cc2)c[nH]1` (racemic) [Example 218, (R,S)-4-[2-(1-aminoheptyl)-1H-imidazol-4-yl]-N,N-diethylaniline], the IC50 was no more than 1000 nM. With `CCCCCCC(N)c1nc(-c2ccc(F)cc2)c[nH]1` (racemic) [Example 220, (R,S)-1-[4-(4-fluorophenyl)-1H-imidazol-2-yl]-1-heptanamine] the IC50 was no more than 1000 nM. `CCCCCCC(N)c1nc(-c2ccccc2Cl)c[nH]1` (racemic) [Example 221, (R,S)-1-[4-(2-chlorophenyl)-1H-imidazol-2-yl]-1-heptanamine] was tested, and the IC50 was no more than 1000 nM. `CCCCCCC(NCCC)c1nc(-c2ccccc2)c[nH]1` (racemic) [Example 224, (R,S)-N-[1-(4-phenyl-1H-imidazol-2-yl)heptyl]-N-propylamine] showed an IC50 of no more than 1000 nM. `CCCCCCC(NCc1ccc(OC)cc1)c1nc(-c2ccccc2)c[nH]1` (racemic) [Example 227, (R,S)-N-(4-methoxybenzyl)-1-(4-phenyl-1H-imidazol-2-yl)-1-heptanamine] gave an IC50 of no more than 1000 nM. `CCCCCCC(NCc1ccccc1)c1nc(-c2ccc(F)cc2)c[nH]1` (racemic) [Example 228, (R,S)-N-benzyl-1-[4-(4-fluorophenyl)-1H-imidazol-2-yl]-1-heptanamine] gave an IC50 of no more than 1000 nM. For `CCCCCCC(NCc1ccccc1)c1nc(-c2ccccc2Cl)c[nH]1` (racemic) [Example 229, (R,S)-N-benzyl-1-[4-(2-chlorophenyl)-1H-imidazol-2-yl]-1-heptanamine], the IC50 was no more than 1000 nM. `CCCCCCC(NCc1ccccc1)c1nc(-c2ccc(N(CC)CC)cc2)c[nH]1` (racemic) [Example 230, (R,S)-N-benzyl-N-(1-{4-[4-(diethylamino)phenyl]-1H-imidazol-2-yl}heptyl)amine] gave an IC50 of no more than 1000 nM. `CCCCCCC(N)c1nc(-c2ccc(Cl)c(Cl)c2)c[nH]1` (racemic) [Example 231, (R,S)-1-[4-(3,4-dichlorophenyl)-1H-imidazol-2-yl]-1-heptanamine] gave an IC50 of no more than 1000 nM. `CC(C)CCCC(N)c1nc(-c2cccc(Br)c2)c[nH]1` (racemic) [Example 233, (R,S)-1-[4-(3-bromophenyl)-1H-imidazol-2-yl]-5-methyl-1-hexanamine] gave an IC50 of no more than 1000 nM. `CCCCCCC(NCC(C)C)c1nc(-c2ccccc2)c[nH]1` (racemic) [Example 234, (R,S)-N-isobutyl-1-(4-phenyl-1H-imidazol-2-yl)-1-heptanamine] gave an IC50 of no more than 1000 nM. Compound `CC(C)CCCC(NCc1ccccc1)c1nc(-c2cccc(Br)c2)c[nH]1` (racemic) [Example 235, (R,S)-N-benzyl-1-[4-(3-bromophenyl)-1H-imidazol-2-yl]-5-methyl-1-hexanamine] has an IC50 of no more than 1000 nM. `CCCCCCC(NCc1ccccc1)c1nc(-c2ccc(OC)cc2)c[nH]1` (racemic) [Example 236, (R,S)-N-benzyl-1-[4-(4-methoxyphenyl)-1H-imidazol-2-yl]-1-heptanamine] showed an IC50 of no more than 1000 nM. For `CCCCCCC(NC1CCC1)c1nc(-c2ccccc2)c[nH]1` (racemic) [Example 240, (R,S)-N-[1-(4-phenyl-1H-imidazol-2-yl)heptyl]cyclobutanamine], the IC50 was no more than 1000 nM. `CCCCCCC(NC(C)C)c1nc(-c2ccccc2)c[nH]1` (racemic) [Example 248, (R,S)-N-isopropyl-N-[1-(4-phenyl-1H-imidazol-2-yl)heptyl]amine] gave an IC50 of no more than 1000 nM. Compound `CCCCCCC(NC1CCCCC1)c1nc(-c2ccc(Cl)c(Cl)c2)c[nH]1` (racemic) [Example 250, (R,S)-N-{1-[4-(3,4-dichlorophenyl)-1H-imidazol-2-yl]heptyl}-cyclohexanamine] has an IC50 of no more than 1000 nM. With `CCCCCCC(NC1CCCCC1)c1nc(-c2ccc(-c3ccccc3)cc2)c[nH]1` (racemic) [Example 252, (R,S)-N-[1-(4-[1,1′-biphenyl]-4-yl-1H-imidazol-2-yl)heptyl]-cyclohexanamine] the IC50 was no more than 1000 nM. For `NC(Cc1c[nH]c2ccc(F)cc12)c1nc(-c2ccc(F)cc2)c[nH]1` (racemic) [Example 253, (R,S)-2-(5-fluoro-1H-indol-3-yl)-1-[4-(4-fluorophenyl)-1H-imidazol-2-yl]ethylamine], the IC50 was no more than 1000 nM. Work on `Fc1ccc(-c2c[nH]c(C(Cc3c[nH]c4ccc(F)cc34)NC3CCC3)n2)cc1` (racemic) [Example 256, (R,S)-N-{2-(5-fluoro-1H-indol-3-yl)-1-[4-(4-fluorophenyl)-1H-imidazol-2-yl]ethyl}cyclobutanamine] yielded an IC50 of no more than 1000 nM. With `CC(C)CCC(NC1CCCCC1)c1nc(-c2ccc(F)cc2)c[nH]1` (racemic) [Example 257, (R,S)-N-{1-[4-(4-fluorophenyl)-1H-imidazol-2-yl]4-methylpentyl}-cyclohexanamine] the IC50 was no more than 1000 nM. In the case of `CCCCCCC(NCC1CCCCC1)c1nc(-c2ccccc2)c[nH]1` (racemic) [Example 263, (R,S) N-(cyclohexylmethyl)-1-(4-phenyl-1H-imidazol-2-yl)-1-heptanamine], the IC50 is reported as no more than 1000 nM. Compound `Fc1ccc(-c2c[nH]c(C(NC3CCCCC3)C3CC3)n2)cc1` (racemic) [Example 266, (R,S)-N-{cyclopropyl[4-(4-fluorophenyl)-1H-imidazol-2-yl]methyl}cyclohexanamine] has an IC50 of no more than 1000 nM. In the case of `Fc1ccc(-c2c[nH]c(C(NC3CCC3)C3CCCC3)n2)cc1` (racemic) [Example 274, (R,S)-N-{cyclopentyl[4-(4-fluorophenyl)-1H-imidazol-2-yl]methyl}cyclobutanamine], the IC50 is reported as no more than 1000 nM. Work on `CNCc1nc(-c2cc(C(C)(C)C)c(O)c(C(C)(C)C)c2)cs1` [Example 1, 4-[3,5-bis(1,1-dimethylethyl)-4-hydroxyphenyl]-N-methyl-2-thiazolemethanamine] yielded an IC50 of no more than 1000 nM. `CN(CC#N)Cc1nc(-c2cc(C(C)(C)C)c(O)c(C(C)(C)C)c2)cs1` [Example 3, 2-[({4-[3,5-di(tert-butyl)-4-hydroxyphenyl]-1,3-thiazol-2-yl}methyl)(methyl)amino]acetonitrile] was tested, and the IC50 was no more than 3500 nM. For `CN(CCO)Cc1nc(-c2cc(C(C)(C)C)c(O)c(C(C)(C)C)c2)cs1` [Example 6, 2,6-di(tert-butyl)-4-(2-{[(2-hydroxyethyl)(methyl)amino]methyl}-1,3-thiazol-4-yl)phenol], the IC50 was no more than 1000 nM. For `CN(Cc1ccccc1)Cc1nc(-c2cc(C(C)(C)C)c(O)c(C(C)(C)C)c2)cs1` [Example 7, 4-(2-{[benzyl(methyl)amino]methyl}-1,3-thiazol-4-yl)-2,6-di(tert-butyl)phenol], the IC50 was no more than 1000 nM. `CN(C)c1ccc(N(C)Cc2nc(-c3cc(C(C)(C)C)c(O)c(C(C)(C)C)c3)cs2)cc1` [Example 9, 2,6-di(tert-butyl)-4-(2-{[4-(dimethylamino)(methyl)anilino]methyl}-1,3-thiazol-4-yl)phenol] was tested, and the IC50 was no more than 3500 nM. `CC(C)(C)c1cc(-c2csc(CNC(=O)OCc3ccccc3)n2)cc(C(C)(C)C)c1O` [Example 10, benzyl {4-[3,5-di(tert-butyl)-4-hydroxyphenyl]-1,3-thiazol-2-yl}methylcarbamate] was tested, and the IC50 was no more than 3500 nM. Compound `CC(C)(C)c1cc(-c2csc(CN)n2)cc(C(C)(C)C)c1O` [Example 11, 4-[2-(aminomethyl)-1,3-thiazol-4-yl]-2,6-di(tert-butyl)phenol] has an IC50 of no more than 1000 nM. `CN(Cc1ccc(N)cc1)Cc1nc(-c2cc(C(C)(C)C)c(O)c(C(C)(C)C)c2)cs1` [Example 13, 4-(2-{[(4-aminobenzyl)(methyl)amino]methyl}-1,3-thiazol-4-yl)-2,6-di(tert-butyl)phenol] gave an IC50 of no more than 1000 nM. `CC(C)(C)c1cc(-c2csc(CNCc3ccc(N)cc3)n2)cc(C(C)(C)C)c1O` [Example 15, 4-(2-{[(4-aminobenzyl)amino]methyl}-1,3-thiazol-4-yl)-2,6-di(tert-butyl)phenol] was tested, and the IC50 was no more than 1000 nM. Compound `CNCc1nc(-c2cc(C(C)(C)C)c(O)c(C(C)(C)C)c2)c[nH]1` [Example 17, 4-[3,5-bis(1,1-dimethylethyl)-4-hydroxyphenyl]-N-methyl-1H-imidazole-2-methanamine] has an IC50 of no more than 1000 nM. `CN(Cc1nc(-c2cc(C(C)(C)C)c(O)c(C(C)(C)C)c2)c[nH]1)C(=O)c1ccc([N+](=O)[O-])cc1` [Example 20, 4-[3,5-bis-(1,1-dimethylethyl)-4-hydroxyphenyl]-N-methyl-N-(4-nitrobenzoyl)-1H-imidazole-2-methanamine] showed an IC50 of no more than 1000 nM. For `CN(CCCC#N)Cc1nc(-c2cc(C(C)(C)C)c(O)c(C(C)(C)C)c2)cs1` [Example 24, 4-[{[4-(3,5-ditert-butyl-4-hydroxyphenyl)-1,3-thiazol-2-yl]methyl}(methyl)amino]butanenitrile], the IC50 was no more than 1000 nM. `C#CCN(C)CCc1coc(-c2cc(C(C)(C)C)c(O)c(C(C)(C)C)c2)n1` [Example 26, 2,6-ditert-butyl-4-(4-{2-[methyl(2-propynyl)amino]ethyl}-1,3-oxazol-2-yl)phenol] showed an IC50 of no more than 3500 nM. `CN(CCC#N)CCc1coc(-c2cc(C(C)(C)C)c(O)c(C(C)(C)C)c2)n1` [Example 28, 3-[{2-[2-(3,5-ditert-butyl-4-hydroxyphenyl)-1,3-oxazol-4-yl]ethyl}(methyl)amino]propanenitrile] gave an IC50 of no more than 3500 nM. Work on `CC(C)(C)c1cc(-c2nc(CCN3CCNCC3)co2)cc(C(C)(C)C)c1O` [Example 29, 2,6-ditert-butyl-4-{4-[2-(1-piperazinyl)ethyl]-1,3-oxazol-2-yl}phenol hydrochloride] yielded an IC50 of no more than 3500 nM.
